Where two headings read alike, the source gives them in different places. No constants are given. Whether binding was seen depends on the method and setting. Binding seen in cells or lysates may run through a third protein. Some binding calls cover weakened binding; strength is not graded here.
Legend:
[1] = target: T1, Upf1 (rat (endogenous in sympathetic neurons of Sprague Dawley rats and in PC12 cells)); experiment: co-IP
T1 sequence: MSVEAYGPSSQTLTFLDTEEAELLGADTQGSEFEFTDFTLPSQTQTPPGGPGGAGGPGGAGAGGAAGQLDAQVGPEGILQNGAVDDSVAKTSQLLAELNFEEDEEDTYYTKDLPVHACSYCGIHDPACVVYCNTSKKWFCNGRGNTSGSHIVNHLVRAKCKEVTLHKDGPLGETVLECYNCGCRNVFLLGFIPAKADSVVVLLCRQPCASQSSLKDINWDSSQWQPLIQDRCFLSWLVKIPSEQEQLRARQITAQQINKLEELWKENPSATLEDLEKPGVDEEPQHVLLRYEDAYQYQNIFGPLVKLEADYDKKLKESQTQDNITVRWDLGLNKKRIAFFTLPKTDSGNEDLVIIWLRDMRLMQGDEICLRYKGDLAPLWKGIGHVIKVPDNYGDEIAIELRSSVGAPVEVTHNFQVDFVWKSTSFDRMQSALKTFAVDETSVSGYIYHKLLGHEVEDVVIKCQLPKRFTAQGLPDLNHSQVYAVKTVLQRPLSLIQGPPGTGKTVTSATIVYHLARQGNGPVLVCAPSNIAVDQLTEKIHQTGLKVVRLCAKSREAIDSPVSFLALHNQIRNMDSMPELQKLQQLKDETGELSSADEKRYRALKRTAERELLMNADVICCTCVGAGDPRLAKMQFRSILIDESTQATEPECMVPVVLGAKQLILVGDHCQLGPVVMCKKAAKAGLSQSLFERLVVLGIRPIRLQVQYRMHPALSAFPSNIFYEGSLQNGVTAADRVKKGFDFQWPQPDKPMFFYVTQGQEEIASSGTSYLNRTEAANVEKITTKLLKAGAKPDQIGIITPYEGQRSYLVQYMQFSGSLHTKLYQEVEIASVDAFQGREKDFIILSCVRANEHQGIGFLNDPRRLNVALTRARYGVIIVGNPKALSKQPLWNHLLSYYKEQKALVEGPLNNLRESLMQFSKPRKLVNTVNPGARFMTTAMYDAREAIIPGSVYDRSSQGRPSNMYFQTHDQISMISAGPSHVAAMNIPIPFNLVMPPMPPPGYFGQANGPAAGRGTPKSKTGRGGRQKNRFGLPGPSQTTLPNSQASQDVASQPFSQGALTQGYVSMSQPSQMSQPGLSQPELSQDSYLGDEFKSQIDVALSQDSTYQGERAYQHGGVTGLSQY

Sequences of proteins named here, by UniProt entry; tags and fusion partners are left off.
UniProt O09032: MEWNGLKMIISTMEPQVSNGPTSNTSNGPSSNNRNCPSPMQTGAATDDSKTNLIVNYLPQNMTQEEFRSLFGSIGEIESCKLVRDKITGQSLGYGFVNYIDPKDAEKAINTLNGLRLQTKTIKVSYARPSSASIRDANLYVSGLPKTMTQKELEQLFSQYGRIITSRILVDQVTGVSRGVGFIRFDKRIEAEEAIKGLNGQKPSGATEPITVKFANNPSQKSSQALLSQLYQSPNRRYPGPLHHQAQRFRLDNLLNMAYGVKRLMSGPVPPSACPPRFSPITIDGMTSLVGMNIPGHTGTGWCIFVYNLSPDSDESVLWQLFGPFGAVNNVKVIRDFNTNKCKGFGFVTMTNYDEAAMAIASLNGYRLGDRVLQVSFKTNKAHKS
UniProt Q9QZ81: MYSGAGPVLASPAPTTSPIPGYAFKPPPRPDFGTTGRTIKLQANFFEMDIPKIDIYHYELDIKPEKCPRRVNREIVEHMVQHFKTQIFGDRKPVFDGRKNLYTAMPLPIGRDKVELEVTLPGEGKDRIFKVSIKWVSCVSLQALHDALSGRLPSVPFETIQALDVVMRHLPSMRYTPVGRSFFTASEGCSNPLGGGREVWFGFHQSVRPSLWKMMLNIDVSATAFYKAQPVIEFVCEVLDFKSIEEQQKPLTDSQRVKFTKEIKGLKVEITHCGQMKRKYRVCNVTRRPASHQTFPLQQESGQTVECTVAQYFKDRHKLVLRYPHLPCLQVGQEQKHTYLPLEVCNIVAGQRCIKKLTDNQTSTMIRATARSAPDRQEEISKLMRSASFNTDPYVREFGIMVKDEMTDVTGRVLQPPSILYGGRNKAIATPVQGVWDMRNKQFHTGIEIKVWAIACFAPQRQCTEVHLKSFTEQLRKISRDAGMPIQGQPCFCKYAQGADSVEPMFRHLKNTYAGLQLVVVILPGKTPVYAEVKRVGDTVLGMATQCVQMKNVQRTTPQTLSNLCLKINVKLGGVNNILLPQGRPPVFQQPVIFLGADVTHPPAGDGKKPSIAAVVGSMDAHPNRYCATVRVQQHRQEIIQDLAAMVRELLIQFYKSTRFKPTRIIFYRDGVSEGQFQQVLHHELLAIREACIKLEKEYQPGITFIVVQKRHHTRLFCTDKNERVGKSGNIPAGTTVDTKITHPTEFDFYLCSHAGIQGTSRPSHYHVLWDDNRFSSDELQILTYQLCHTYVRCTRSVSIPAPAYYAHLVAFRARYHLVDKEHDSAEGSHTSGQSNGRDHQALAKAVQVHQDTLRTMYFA

[2] = target: T1, Upf1 (rat (endogenous in sympathetic neurons of Sprague Dawley rats and in PC12 cells)); experiment: co-IP; remark: listed apart in the source

Substance | binding [1] | binding [2]
ELAV-like protein 4 (from UniProt O09032 1-385) | binds | binds
argonaute-2 (from UniProt Q9QZ81 1-860) | binds | binds

From doi:10.1101/170100
